Numbering of substitutions follows the chain as printed. Results are given in words; binding and its absence hold for the method and conditions named. Some results given as binding are weak or reduced against the parent protein; the word gives no strength.
How the values were obtained:
[1] = biological target: native TDP-43 in cynomolgus monkey serum (cynomolgus monkey); assay: SIMOA measurement of free/unbound TDP-43 in cynomolgus monkey serum after a single IV bolus of 40 mg/kg (target engagement, Example 10)
[2] = biological target: native TDP-43 in cynomolgus monkey serum (cynomolgus monkey); assay: SIMOA of unbound TDP-43 in serum of dosed cynomolgus monkeys
[3] = biological target: aggregated and phosphorylated TDP-43 enriched from an FTLD-TDP brain extract (human) (UniProt Q13148); assay: immunodepletion of FTLD-TDP brain extract, Western blot quantification normalized to input (Example 13)
[4] = biological target: aggregated and phosphorylated TDP-43 enriched from an FTLD-TDP brain extract (human) (UniProt Q13148); assay: immunodepletion of FTLD-TDP brain extract, TDP-43 immunoblot

Measured: binding

B1: hACI-7069-633B12-Ab1_H33L27 (antibody, V domains shown)
VH: EVQLVQSGAEVKKPGATVKISCKVSGFTFTEYSMHWVQQAPGKGLEWMGGINPNNGGTSYNQKFQGRVTITADTSTDTAYMELSSLRSEDTAVYYCARESWGQGTTVTVSS
VL: DIVMTQSPLSLPVTPGEPASISCKSSQSLLHSDGKTYLNWLLQKPGQSPQRLIYLVSKLDSRVPDRFSGSGSGTDFTLKISRVEAEDVGVYYCFQGTHFPHTFGQGTKLEIK
binds: all assays above

B2: hACI-7069-633B12-Ab1_H32L27 (antibody, V domains shown)
VH: B1 VH with N54Q, G56A
VL: B1 VL
binds: [1] | [2]

Reference: patent publication US20250145695A1
